Laboratory results reported in publication PMC12457078, “Inhibition of soluble epoxide hydrolase in endotoxin induced pig lung injury” (Frontiers in Pharmacology, 2025).

Tested on: endotoxin-induced lung injury
Experiment: porcine model of LPS-induced acute lung injury: haemodynamics, ventilation/mechanics, blood gases, P/F, chemistry, temperature, survival
Format: in vivo, pig
Conditions: individual animals, listed as sEH-i 950
Method: The animals were bred for purpose at the Forslunda Agricultural School in Umeå, Sweden. The pigs were pairwise kept in 8 m^2 pens before start of experiments and were fed twice daily with a commercially available pig diet without antimicrobials, and with free access to water. Photoperiods were 12:12 h light:dark. Room temperature in their stall was 20 °C ± 1 °C.
After overnight fasting, but with free access to water and hay, animals were pre-medicated with ketamine (Ketaminol vet® 100 mg/mL; Intervet International B.V, Boxmeer, Netherlands), xylazine (Rompun® vet 20 mg/mL; Bayer Animal Health, Copenhagen, Denmark) and atropine (Atropin Mylan 0.5 mg/mL; Mylan AB, Stockholm, Sweden) by intramuscular injection before an auricular vein was cannulated. […]
All animals were monitored with pulse oximetry, heart rate, ECG, systemic arterial blood pressure (ABP), pulmonary arterial pressure (PAP), central venous pressure (CVP) temperature, tidal volumes, respiratory rate and end tidal carbon dioxide. At baseline, and at 3 h, 6 h and at the end of the experiment, pulmonary capillary wedge pressure (PCWP) was measured together with arterial and venous blood gas analyses, as well as cardiac output calculations. […]

## CCOCCOCCOCCCCCNC(=O)NC12CC3CC(CC(C3)C1)C2 [Compound 950]
3 h
  Temp 3 h: 37.6 °C and 39.3 °C and 37.8 °C and 38.8 °C and 39.2 °C and 38.9 °C and 39.6 °C and 37.5 °C and 38.3 °C and 38.1 °C
6 h
  Temp 6 h: 39.1 °C and 38.3 °C and 39.8 °C and 40.5 °C and 38.7 °C and 40.3 °C and 37.4 °C and 38.2 °C

Several values for one entry are separate records, joined by “and”; a condition that tells them apart may be missing. Equal values may be shown once.
